# Read-outs that look alike come from different tables or passages of the source. Structures were worked out from names or drawings and are uncertain.
# Chains of the proteins cited; added tags and fusions are not shown. Residues count along the entry.
# UniProt P43220, 24-463 G168S limits assumed: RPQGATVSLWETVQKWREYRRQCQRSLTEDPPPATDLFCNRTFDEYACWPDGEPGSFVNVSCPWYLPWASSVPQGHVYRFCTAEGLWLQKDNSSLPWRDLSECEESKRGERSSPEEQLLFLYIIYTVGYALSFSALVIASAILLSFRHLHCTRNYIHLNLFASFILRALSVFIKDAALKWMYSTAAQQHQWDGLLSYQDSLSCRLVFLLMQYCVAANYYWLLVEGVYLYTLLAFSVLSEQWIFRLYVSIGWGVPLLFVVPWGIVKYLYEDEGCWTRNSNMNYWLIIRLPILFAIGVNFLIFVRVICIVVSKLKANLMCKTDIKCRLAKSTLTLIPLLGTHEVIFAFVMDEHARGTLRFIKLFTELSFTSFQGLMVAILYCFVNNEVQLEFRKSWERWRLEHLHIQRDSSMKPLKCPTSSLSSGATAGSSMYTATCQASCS
# UniProt P43220, 24-463 L260F limits assumed: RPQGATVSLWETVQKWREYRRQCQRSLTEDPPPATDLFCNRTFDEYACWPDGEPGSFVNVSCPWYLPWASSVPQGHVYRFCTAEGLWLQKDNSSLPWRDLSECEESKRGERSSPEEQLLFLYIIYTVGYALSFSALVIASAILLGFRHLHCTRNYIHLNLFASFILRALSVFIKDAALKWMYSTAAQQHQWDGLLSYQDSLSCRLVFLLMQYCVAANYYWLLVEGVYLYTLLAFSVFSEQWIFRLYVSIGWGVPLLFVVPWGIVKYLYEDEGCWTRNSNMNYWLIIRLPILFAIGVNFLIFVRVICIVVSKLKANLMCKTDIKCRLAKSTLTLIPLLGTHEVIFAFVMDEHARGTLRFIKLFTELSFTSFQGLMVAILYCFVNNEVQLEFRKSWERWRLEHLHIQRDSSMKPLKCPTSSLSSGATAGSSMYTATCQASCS
# Key:
# human GLP-1R [1] = target: human GLP-1R (Homo sapiens, UniProt P43220, L260F); test: CHO GLP-1R Clone C6 cAMP HTRF agonist assay (Assay 2, low receptor density); format: cell-based; details: for Assay 2 Emax (%): CHO GLP-1R clone C6, arithmetic mean, relative to saturating GLP-1 (1 μM); for EC50: read-out: Assay 2 EC50, CHO GLP-1R clone C6, cAMP HTRF, geometric mean
# human GLP-1R [2] = target: human GLP-1R (Homo sapiens, UniProt P43220, G168S); test: CHO GLP-1R Clone H6 cAMP HTRF agonist assay (Assay 1, high receptor density); format: cell-based; details: for Assay 1 Emax (%): CHO GLP-1R clone H6, arithmetic mean, relative to saturating GLP-1 (1 μM); for EC50: read-out: Assay 1 EC50, CHO GLP-1R clone H6, cAMP HTRF, geometric mean
Assay 2 Emax (%) (human GLP-1R [1]),EC50 (human GLP-1R [1]) [nM],Assay 1 Emax (%) (human GLP-1R [2]),EC50 (human GLP-1R [2]) [nM],SMILES,Assay 2 Emax (%) (human GLP-1R [1]; tested form: HCl),EC50 (human GLP-1R [1]; tested form: HCl) [nM],Assay 1 Emax (%) (human GLP-1R [2]; tested form: HCl),EC50 (human GLP-1R [2]; tested form: HCl) [nM]
,,,,Cn1c(CN2CCC(c3cccc(OCc4ccc(Cl)cc4F)n3)CC2)nc2ccc(C(=O)O)cc21,87,27,72,1.3
110,11,86,0.58,C[C@H]1CN(c2cccc(OCc3ccc(C#N)cc3F)n2)CCN1Cc1nc2ccc(C(=O)O)cc2n1Cc1cnnn1C,,,,
90,1100,99,100,CCn1cncc1Cn1c(CN2CCC(c3cccc(OCc4ccc(Cl)cc4F)n3)CC2)nc2ccc(C(=O)O)cc21,,,,
95,51,79,2.9,O=C(O)c1ccc2nc(CN3CCN(c4cccc(OCc5ccc(Cl)cc5F)n4)CC3)n(C[C@H]3CCO3)c2c1,,,,
100,8.8,88,0.76,CCn1cncc1Cn1c(CN2CCN(c3cccc(OCc4ccc(Cl)cc4F)n3)C[C@@H]2C)nc2ccc(C(=O)O)cc21,,,,
80,250,75,13,Cn1c(CN2CCC(c3cccc(OCc4ccc(Cl)cc4F)n3)CC2)nc2cc(Cl)c(C(=O)O)cc21,,,,
98,12,83,0.94,O=C(O)c1ccc2nc(CN3CCC(c4cccc(OCc5ccc(Cl)cc5F)n4)CC3)n(Cc3ccno3)c2c1,,,,
97,28,96,2.9,C[C@H]1CN(c2cccc(OCc3ccc(Cl)cc3F)n2)CCN1Cc1nc2ccc(C(=O)O)cc2n1Cc1cnnn1C,,,,
